Some results were stated once for a whole list of compounds, not compound by compound.
Target: human NaV 1.8 (Homo sapiens, UniProt Q9Y5Y9)
Assay: E-VIPR Assay Detecting and Measuring NaV Inhibition Properties
Assay type: cell-based
Settings: HEK cells expressing a truncated form of human NaV 1.8 with full channel activity; electrical stimulation, membrane-potential FRET dyes; 30 minutes compound incubation; read-out: measured IC50 value in the E-VIPR Assay

Chains of the proteins cited; added tags and fusions are not shown. Residues count along the entry.
UniProt Q9Y5Y9, 126-1722 limits assumed: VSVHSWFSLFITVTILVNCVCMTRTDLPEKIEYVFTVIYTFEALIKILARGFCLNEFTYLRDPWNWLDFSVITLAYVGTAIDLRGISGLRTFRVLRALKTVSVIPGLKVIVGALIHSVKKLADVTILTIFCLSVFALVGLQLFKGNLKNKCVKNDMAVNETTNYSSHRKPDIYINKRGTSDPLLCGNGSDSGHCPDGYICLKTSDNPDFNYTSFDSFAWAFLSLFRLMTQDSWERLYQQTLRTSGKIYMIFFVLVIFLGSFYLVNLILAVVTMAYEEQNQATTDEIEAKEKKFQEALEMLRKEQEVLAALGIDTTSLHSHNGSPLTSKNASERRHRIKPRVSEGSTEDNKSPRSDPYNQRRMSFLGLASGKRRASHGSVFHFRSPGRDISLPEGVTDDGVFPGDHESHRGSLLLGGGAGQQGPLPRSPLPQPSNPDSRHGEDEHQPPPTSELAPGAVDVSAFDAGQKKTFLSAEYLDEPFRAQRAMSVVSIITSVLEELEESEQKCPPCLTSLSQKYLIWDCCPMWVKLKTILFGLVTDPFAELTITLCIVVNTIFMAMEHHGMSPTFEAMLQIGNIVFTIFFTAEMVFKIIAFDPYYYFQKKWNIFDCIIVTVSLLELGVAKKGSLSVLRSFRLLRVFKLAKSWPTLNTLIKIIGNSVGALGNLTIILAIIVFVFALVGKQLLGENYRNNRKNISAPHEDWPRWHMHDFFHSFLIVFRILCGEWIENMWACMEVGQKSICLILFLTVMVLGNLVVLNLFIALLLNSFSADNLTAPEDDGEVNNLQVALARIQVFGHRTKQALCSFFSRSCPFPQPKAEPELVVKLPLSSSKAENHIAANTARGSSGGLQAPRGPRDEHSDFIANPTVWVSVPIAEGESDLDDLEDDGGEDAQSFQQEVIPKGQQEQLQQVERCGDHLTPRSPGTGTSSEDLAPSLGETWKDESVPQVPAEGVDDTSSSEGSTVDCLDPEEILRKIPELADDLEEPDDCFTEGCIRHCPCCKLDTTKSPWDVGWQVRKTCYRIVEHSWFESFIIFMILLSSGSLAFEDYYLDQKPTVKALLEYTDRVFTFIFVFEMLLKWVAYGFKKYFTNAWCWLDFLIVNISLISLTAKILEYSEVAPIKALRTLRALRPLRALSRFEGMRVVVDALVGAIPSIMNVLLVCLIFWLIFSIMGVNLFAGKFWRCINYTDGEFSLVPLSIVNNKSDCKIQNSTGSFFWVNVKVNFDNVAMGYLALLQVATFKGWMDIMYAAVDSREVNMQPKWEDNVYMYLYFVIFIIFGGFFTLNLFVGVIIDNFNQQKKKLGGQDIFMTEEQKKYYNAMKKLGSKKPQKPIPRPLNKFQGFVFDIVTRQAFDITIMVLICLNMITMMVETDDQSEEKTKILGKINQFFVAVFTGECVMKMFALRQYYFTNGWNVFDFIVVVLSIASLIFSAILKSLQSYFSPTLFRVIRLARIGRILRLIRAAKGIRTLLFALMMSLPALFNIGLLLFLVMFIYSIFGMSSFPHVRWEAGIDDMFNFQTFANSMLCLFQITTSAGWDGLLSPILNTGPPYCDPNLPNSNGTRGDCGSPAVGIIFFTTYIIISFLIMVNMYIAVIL

IC50, < 500 nM:
Cc1cc(-c2[nH]c(C)c(C)c(=O)c2C(N)=O)c(Oc2ccc(F)c(F)c2C)nc1C(F)(F)F [Compound 304, 2-[2-(3,4-difluoro-2-methyl-phenoxy)-5-methyl-6-(trifluoromethyl)-3-pyridyl]-5,6-dimethyl-4-oxo-1H-pyridine-3-carboxamide]
COC(=O)c1c(C)[nH]c(-c2cc(C(F)(F)F)ncc2Oc2ccc(F)c(F)c2OC)c(C)c1=O [Compound 305, methyl 6-[5-(3,4-difluoro-2-methoxy-phenoxy)-2-(trifluoromethyl)-4-pyridyl]-2,5-dimethyl-4-oxo-1H-pyridine-3-carboxylate]
COC(=O)c1c(C)[nH]c(-c2cnc(C3CC(F)(F)C3)cc2C2CCC(C(F)(F)F)CC2)c(C)c1=O (stereo not shown) [Compound 306, methyl 6-[6-(3,3-difluorocyclobutyl)-4-[4-(trifluoromethyl)cyclohexyl]-3-pyridyl]-2,5-dimethyl-4-oxo-1H-pyridine-3-carboxylate]
Cc1[nH]c(-c2cnc(C3CC(F)(F)C3)cc2C2CCC(C(F)(F)F)CC2)c(C)c(=O)c1C(N)=O (stereo not shown) [Compound 307, 6-[6-(3,3-difluorocyclobutyl)-4-[4-(trifluoromethyl)cyclohexyl]-3-pyridyl]-2,5-dimethyl-4-oxo-1H-pyridine-3-carboxamide]
COC(=O)c1c(C)[nH]c(-c2cc(C(F)(F)F)ncc2Oc2ccc(OC(F)(F)F)cc2OC)c(C)c1=O [Compound 308, methyl 6-[5-[2-methoxy-4-(trifluoromethoxy)phenoxy]-2-(trifluoromethyl)-4-pyridyl]-2,5-dimethyl-4-oxo-1H-pyridine-3-carboxylate]
COC(=O)c1c(C)[nH]c(-c2c(Oc3ccc(F)c(F)c3OC)cnc(C(F)(F)F)c2C)cc1=O [Compound 309, methyl 6-[5-(3,4-difluoro-2-methoxy-phenoxy)-3-methyl-2-(trifluoromethyl)-4-pyridyl]-2-methyl-4-oxo-1H-pyridine-3-carboxylate]
COC(=O)c1c(C)[nH]c(-c2cc(F)c(C(F)(F)F)cc2Oc2ccc(F)c(F)c2OC)c(C)c1=O [Compound 311, methyl 6-[2-(3,4-difluoro-2-methoxy-phenoxy)-5-fluoro-4-(trifluoromethyl)phenyl]-2,5-dimethyl-4-oxo-1H-pyridine-3-carboxylate]
C#Cc1c(C)[nH]c(-c2cc3ccccc3nc2Oc2ccc(F)c(F)c2C)c(C(=O)OCC)c1=O [Compound 312, ethyl 2-[2-(3,4-difluoro-2-methyl-phenoxy)-3-quinolyl]-5-ethynyl-6-methyl-4-oxo-1H-pyridine-3-carboxylate]
CCOCc1c(C)[nH]c(-c2c(C)cc(C(C)(C)C)cc2Oc2ccc(F)cc2OC)cc1=O [Compound 313, 6-[4-tert-butyl-2-(4-fluoro-2-methoxy-phenoxy)-6-methyl-phenyl]-3-(ethoxymethyl)-2-methyl-1H-pyridin-4-one]
Cc1cc(-c2[nH]c(C)c(C)c(=O)c2CO)c(N2CCCC(F)(F)CC2)nc1C(F)(F)F [Compound 314, 2-[2-(4,4-difluoroazepan-1-yl)-5-methyl-6-(trifluoromethyl)-3-pyridyl]-3-(hydroxymethyl)-5,6-dimethyl-1H-pyridin-4-one]
COc1c(Oc2cc(C(F)(F)F)c(F)cc2-c2[nH]c(C)c(C)c(=O)c2CO)ccc(F)c1F [Compound 315, 2-[2-(3,4-difluoro-2-methoxy-phenoxy)-5-fluoro-4-(trifluoromethyl)phenyl]-3-(hydroxymethyl)-5,6-dimethyl-1H-pyridin-4-one]
COc1cc(OC(F)(F)F)ccc1Oc1cc(C(F)(F)F)c(F)cc1-c1cc(=O)cc(C)[nH]1 [Compound 316, 2-[5-fluoro-2-[2-methoxy-4-(trifluoromethoxy)phenoxy]-4-(trifluoromethyl)phenyl]-6-methyl-1H-pyridin-4-one]
Cc1cc(=O)cc(-c2nc3ccccc3nc2Oc2ccc(F)c(F)c2C)[nH]1 [Compound 317, 2-[3-(3,4-difluoro-2-methyl-phenoxy)quinoxalin-2-yl]-6-methyl-1H-pyridin-4-one]
